Measurements reported in the supplement of paper PMC11264405.

What was measured:
Test in all cases: minimum inhibitory concentration
linezolid = compound: CC(=O)NC[C@H]1CN(c2ccc(N3CCOCC3)c(F)c2)C(=O)O1 [linezolid]
fidaxomicin = compound: CCc1c(Cl)c(O)c(Cl)c(O)c1C(=O)O[C@H]1[C@H](O)[C@H](OC)[C@H](OC/C2=C\C=C\C[C@H](O)/C(C)=C/[C@H](CC)[C@@H](O[C@@H]3OC(C)(C)[C@@H](OC(=O)C(C)C)[C@H](O)[C@@H]3O)/C(C)=C/C(C)=C/C[C@@H]([C@@H](C)O)OC2=O)O[C@@H]1C [fidaxomicin]
imipenem = compound: C[C@@H](O)[C@H]1C(=O)N2C(C(=O)O)=C(SCCNC=N)C[C@H]12 [imipenem]
metronidazole = compound: Cc1ncc([N+](=O)[O-])n1CCO [metronidazole]
rifampicin = compound: CO[C@H]1/C=C/O[C@@]2(C)Oc3c(C)c(O)c4c(O)c(c(/C=N/N5CCN(C)CC5)c(O)c4c3C2=O)NC(=O)/C(C)=C\C=C\[C@H](C)[C@H](O)[C@@H](C)[C@@H](O)[C@@H](C)[C@H](OC(C)=O)[C@@H]1C [rifampicin]
clindamycin = compound: CCC[C@@H]1C[C@@H](C(=O)N[C@@H]([C@H]2O[C@H](SC)[C@H](O)[C@@H](O)[C@H]2O)[C@H](C)Cl)N(C)C1 [clindamycin]
vancomycin = compound: CN[C@H](CC(C)C)C(=O)N[C@H]1C(=O)N[C@@H](CC(N)=O)C(=O)N[C@H]2C(=O)N[C@H]3C(=O)N[C@H](C(=O)N[C@H](C(=O)O)c4cc(O)cc(O)c4-c4cc3ccc4O)[C@H](O)c3ccc(c(Cl)c3)Oc3cc2cc(c3O[C@@H]2O[C@H](CO)[C@@H](O)[C@H](O)[C@H]2O[C@H]2C[C@](C)(N)[C@H](O)[C@H](C)O2)Oc2ccc(cc2Cl)[C@H]1O [vancomycin]
meropenem = compound: C[C@@H](O)[C@H]1C(=O)N2C(C(=O)O)=C(S[C@@H]3CN[C@H](C(=O)N(C)C)C3)[C@H](C)[C@H]12 [meropenem]
tigecycline = compound: CN(C)c1cc(NC(=O)CNC(C)(C)C)c(O)c2c1C[C@H]1C[C@H]3[C@H](N(C)C)C(O)=C(C(N)=O)C(=O)[C@@]3(O)C(O)=C1C2=O [tigecycline]

Test System	minimum inhibitory concentration (linezolid)	minimum inhibitory concentration (fidaxomicin)	minimum inhibitory concentration (imipenem)	minimum inhibitory concentration (metronidazole)	minimum inhibitory concentration (rifampicin)	minimum inhibitory concentration (clindamycin)	minimum inhibitory concentration (vancomycin)	minimum inhibitory concentration (meropenem)	minimum inhibitory concentration (tigecycline)
Clostridioides difficile PCR ribotype 031 isolate #138 (European region: North, country: UK, isolate source: Human, ribotype: 031)	2 mg/L	0.06 mg/L	2 mg/L	< 0.125 mg/L	< 1 ng/mL	2 mg/L	1 mg/L	2 mg/L	< 0.03 mg/L
Clostridioides difficile PCR ribotype 032 isolate #139 (European region: South, country: Greece, isolate source: Human, ribotype: 032)	2 mg/L	0.008 mg/L	1 mg/L	< 0.125 mg/L	< 1 ng/mL	> 128 mg/L	1 mg/L	2 mg/L	0.06 mg/L
Clostridioides difficile PCR ribotype 033 isolate #312 (European region: West, country: Netherlands, isolate source: Animal, ribotype: 033)	2 mg/L	0.008 mg/L	0.5 mg/L	< 0.125 mg/L	< 1 ng/mL	0.5 mg/L	0.25 mg/L	2 mg/L	0.25 mg/L
Clostridioides difficile PCR ribotype 035 isolate #140 (European region: East, country: Poland, isolate source: Human, ribotype: 035)	2 mg/L	0.004 mg/L	2 mg/L	< 0.125 mg/L	< 1 ng/mL	0.25 mg/L	1 mg/L	2 mg/L	< 0.03 mg/L
Clostridioides difficile PCR ribotype 035 isolate #141 (European region: North, country: UK, isolate source: Human, ribotype: 035)	2 mg/L	0.06 mg/L	2 mg/L	1 mg/L	< 1 ng/mL	4 mg/L	0.25 mg/L	2 mg/L	0.06 mg/L
Clostridioides difficile PCR ribotype 035 isolate #142 (European region: North, country: UK, isolate source: Human, ribotype: 035)	2 mg/L	0.06 mg/L	2 mg/L	< 0.125 mg/L	< 1 ng/mL	8 mg/L	0.5 mg/L	2 mg/L	< 0.03 mg/L
Clostridioides difficile PCR ribotype 035 isolate #143 (European region: North, country: UK, isolate source: Human, ribotype: 035)	2 mg/L	0.015 mg/L	2 mg/L	< 0.125 mg/L	< 1 ng/mL	0.25 mg/L	0.5 mg/L	2 mg/L	< 0.03 mg/L
Clostridioides difficile PCR ribotype 035 isolate #313 (European region: West, country: Netherlands, isolate source: Animal, ribotype: 035)	2 mg/L	0.015 mg/L	2 mg/L	0.25 mg/L	< 1 ng/mL	4 mg/L	0.5 mg/L	4 mg/L	< 0.03 mg/L
Clostridioides difficile PCR ribotype 037 isolate #144 (European region: North, country: Sweden, isolate source: Human, ribotype: 037)	1 mg/L	0.015 mg/L	2 mg/L	< 0.125 mg/L	< 1 ng/mL	16 mg/L	1 mg/L	2 mg/L	< 0.03 mg/L
Clostridioides difficile PCR ribotype 038 isolate #145 (European region: North, country: Sweden, isolate source: Human, ribotype: 038)	2 mg/L	0.015 mg/L	1 mg/L	< 0.125 mg/L	< 1 ng/mL	16 mg/L	1 mg/L	2 mg/L	< 0.03 mg/L
Clostridioides difficile PCR ribotype 038 isolate #146 (European region: North, country: Sweden, isolate source: Human, ribotype: 038)	1 mg/L	0.03 mg/L	1 mg/L	< 0.125 mg/L	< 1 ng/mL	8 mg/L	1 mg/L	2 mg/L	< 0.03 mg/L
Clostridioides difficile PCR ribotype 039 isolate #147 (European region: North, country: UK, isolate source: Human, ribotype: 039)	2 mg/L	0.002 mg/L	4 mg/L	0.25 mg/L	< 1 ng/mL	4 mg/L	1 mg/L	4 mg/L	< 0.03 mg/L
Clostridioides difficile PCR ribotype 039 isolate #149 (European region: East, country: Poland, isolate source: Human, ribotype: 039)	2 mg/L	0.06 mg/L	4 mg/L	0.25 mg/L	< 1 ng/mL	> 128 mg/L	0.5 mg/L	4 mg/L	< 0.03 mg/L
Clostridioides difficile PCR ribotype 039 isolate #150 (European region: South, country: Italy, isolate source: Human, ribotype: 039)	2 mg/L	0.06 mg/L	4 mg/L	1 mg/L	< 1 ng/mL	4 mg/L	0.25 mg/L	4 mg/L	0.06 mg/L
Clostridioides difficile PCR ribotype 039 isolate #151 (European region: North, country: UK, isolate source: Human, ribotype: 039)	2 mg/L	0.125 mg/L	4 mg/L	0.25 mg/L	< 1 ng/mL	16 mg/L	0.5 mg/L	4 mg/L	< 0.03 mg/L
Clostridioides difficile PCR ribotype 039 isolate #152 (European region: North, country: UK, isolate source: Human, ribotype: 039)	2 mg/L	0.125 mg/L	4 mg/L	0.5 mg/L	< 1 ng/mL	> 128 mg/L	0.5 mg/L	1 mg/L	< 0.03 mg/L
Clostridioides difficile PCR ribotype 039 isolate #153 (European region: North, country: UK, isolate source: Human, ribotype: 039)	2 mg/L	0.06 mg/L	4 mg/L	0.25 mg/L	< 1 ng/mL	> 128 mg/L	1 mg/L	4 mg/L	< 0.03 mg/L
Clostridioides difficile PCR ribotype 039 isolate #154 (European region: South, country: Spain, isolate source: Human, ribotype: 039)	2 mg/L	0.06 mg/L	4 mg/L	0.5 mg/L	< 1 ng/mL	64 mg/L	0.5 mg/L	4 mg/L	0.06 mg/L
Clostridioides difficile PCR ribotype 039 isolate #155 (European region: South, country: Spain, isolate source: Human, ribotype: 039)	2 mg/L	0.06 mg/L	4 mg/L	0.5 mg/L	< 1 ng/mL	1 mg/L	0.5 mg/L	4 mg/L	0.06 mg/L
Clostridioides difficile PCR ribotype 039 isolate #156 (European region: North, country: UK, isolate source: Human, ribotype: 039)	0.5 mg/L	0.06 mg/L	2 mg/L	0.25 mg/L	< 1 ng/mL	> 128 mg/L	0.5 mg/L	4 mg/L	< 0.03 mg/L
Clostridioides difficile PCR ribotype 039 isolate #157 (European region: South, country: Spain, isolate source: Human, ribotype: 039)	2 mg/L	0.06 mg/L	2 mg/L	< 0.125 mg/L	2 ng/mL	> 128 mg/L	0.5 mg/L	4 mg/L	0.015 mg/L
Clostridioides difficile PCR ribotype 039 isolate #158 (European region: South, country: Spain, isolate source: Human, ribotype: 039)	2 mg/L	0.06 mg/L	4 mg/L	0.25 mg/L	2 ng/mL	> 128 mg/L	1 mg/L	4 mg/L	< 0.03 mg/L
Clostridioides difficile PCR ribotype 039 isolate #159 (European region: South, country: Spain, isolate source: Human, ribotype: 039)	2 mg/L	0.03 mg/L	4 mg/L	0.25 mg/L	2 ng/mL	4 mg/L	0.5 mg/L	4 mg/L	< 0.03 mg/L
Clostridioides difficile PCR ribotype 039 isolate #160 (European region: East, country: Poland, isolate source: Human, ribotype: 039)	2 mg/L	0.03 mg/L	4 mg/L	0.25 mg/L	< 1 ng/mL	> 128 mg/L	0.5 mg/L	4 mg/L	0.06 mg/L
Clostridioides difficile PCR ribotype 045 isolate #161 (European region: East, country: Poland, isolate source: Human, ribotype: 045)	2 mg/L	0.004 mg/L	2 mg/L	< 0.125 mg/L	< 1 ng/mL	> 128 mg/L	0.5 mg/L	2 mg/L	< 0.03 mg/L
Clostridioides difficile PCR ribotype 045 isolate #314 (European region: East, country: Slovakia, isolate source: Animal, ribotype: 045)	2 mg/L	0.004 mg/L	2 mg/L	0.25 mg/L	< 1 ng/mL	> 128 mg/L	1 mg/L	2 mg/L	< 0.03 mg/L

Part of the list above, reduced to minimum inhibitory concentration (fidaxomicin):
Test System | minimum inhibitory concentration (fidaxomicin)
Clostridioides difficile PCR ribotype 033 isolate #312 (European region: West, country: Netherlands, isolate source: Animal, ribotype: 033) | 0.008 mg/L
Clostridioides difficile PCR ribotype 035 isolate #140 (European region: East, country: Poland, isolate source: Human, ribotype: 035) | 0.004 mg/L
